Experimental data reported in publication PMC6731595, “The anti-parasitic agent suramin and several of its analogues are inhibitors of the DNA binding protein Mcm10” (Open Biology, 2019).
The exact form of at least one protein or probe is not confirmed. At least one verdict was read from the data and is not stated in words by the source. Tags and fusion partners may be left off the protein sequences shown.

Molecular target: T1, xMcm10-ID (Xenopus laevis) (UniProt Q5EAW4)
T1 sequence (looked up): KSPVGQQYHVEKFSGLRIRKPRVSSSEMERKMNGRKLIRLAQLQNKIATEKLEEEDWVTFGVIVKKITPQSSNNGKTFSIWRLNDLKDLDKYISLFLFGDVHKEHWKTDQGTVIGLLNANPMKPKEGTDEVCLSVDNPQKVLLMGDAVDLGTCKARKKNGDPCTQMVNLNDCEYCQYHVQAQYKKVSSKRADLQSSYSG
Test: fluorescence polarization
Conditions: LOPAC pilot screen, Z' 0.61; FP: 20 mM Tris-HCl, 100 mM NaCl, 5% glycerol, 0.01% Triton, pH 7.5, RT 60 min, 12.5 nM probe (0.1% DMSO in HTS); recombinant protein; residues 229-427; label: 3'-6FAM; single-stranded DNA

Does ATGGTAGGCA [3'-6FAM 10-mer] bind?
Result: binds
